Measurements from patent US5179196A, “Purification of proteins employing CTAP-III fusions” (SRI International, priority 1989, dated 1993).

System: E. coli
Assay: Stability study, pulse and chase labeling of proteins expressed in E. coli
Format: cell-based

Row | Molecule | half-life (expressed in plasmid pNP6ΔRI/HIR (or pNP6-CRM/HIR), not as a fusion protein, FIG. 8) | half-life in E. coli (in E. coli) | half-life (in words) (expressed in E. coli)
1 | HV-1: hirudin variant 1, thrombin inhibitor of Hirudo medicinalis, produced from a synthetic DNA | approximately 10 min | approximately 10 minutes | 
2 | CTAP-III: naturally occurring polypeptide isolated from human platelets that activates connective tissue cells; fusion partner (protein, UniProt P02775 44-128, looked up, Connective tissue-activating peptide III, fusion partner) Connective tissue-activating …: NLAKGKEESLDSDLYAELRCMCIKTTSGIHPKNIQSLEVIGKGTHCNQVEVIATLKDGRKICLDPDAPRIKKIVQKKLAGDESAD |  |  | so long that it cannot be accurately measured
